# This is one part of the list.
# B1: il10ra_site1_sap_23_mot_HHH_b1_02809_af2_000000277_0001_40_57_H_._HHH_b1_05790_af2_0001_0000500027_0000001_0_0001 (protein)
# chain: SSSSDERYEEIKRALQEVLEAVRNGDEELFEELFEEAREIIEKTNTISAKFALEQARAALGSSSS
# B2: il10ra_site1_normal_mot_HHH_b2_06857_af2_000000179_0001_42_54_H_._76fe7993c3ad9ffb2b2ee76f24d0ea53_0001_0001_0000300015_0000001_0 (protein)
# chain: SLEEKLEEIKKLGVPPLVVEQFKFAFRRQREAGIPPEEVLEYLEEVAKRANNPRLEEVIKLVAET
# B3: il10ra_site1_sap_14_mot_b26a303360aa2756ef5b79665ce52f45_0001_000000179_0001_1_11_H_._HHH_b1_03361_af2_0001_0000100001_0000001_1_0001 (protein)
# chain: SSSSSDEEIKERVEELLEEAEEIPDRHEALRLLIEALRLAFQAGDPELLQLIWRVAKELESSSSS
# B4: il10ra_site1_normal_mot_HHH_b1_02492_000000051_0001_1_21_H_._HHH_b2_07864_af2_0001_0000300025_0000001_1 (protein)
# chain: SSSSNEEYDELYELLRELIELVREGDEEEFERLLKEVKELAEELNDFATRFVVRLLERDLTSSSS
# B5: il10ra_site1_sap_27_mot_HHH_b2_06090_af2_000000001_0001_1_19_H_._HHH_b1_07370_af2_0001_0000200015_0000001_0_0001_af2pred_0001 (protein)
# chain: SSSSSSSELEQRVRALLFFAELATNPEARKLALEIAERLAEENNNEELEELVKEVQEKLSSSSSS
# B6: il10ra_site1_normal_mot_HHH_b2_02053_af2_000000006_0001_3_19_H_._HHH_b1_08287_0001_0000100005_0000001_0 (protein)
# chain: SSSSTEETEELYELLRELLELVFEGNEEEFERVVEEIHRLAEEGNNFIFLFSLREAEKSFNSSSS
# B7: il10ra_site1_sap_21_mot_HHH_b1_07478_000000026_0001_21_37_H_._HHH_b1_05924_0001_0000500028_0000001_0_0001 (protein)
# chain: SSSNAERSIERMLEAVKDLLKQGDREYAKLALRFLEHEIRWLGDEELEEILEELKELLEELSSSS
# B8: il10ra_site1_normal_mot_HHH_b2_07521_000000141_0001_20_37_H_._HHH_b1_00233_af2_0001_0000400029_0000002_0 (protein)
# chain: SSSSDEYVELSLRFAKQLVESGDPEAAERIAHAALQLAERNNDPELAEELEELLEEIRRRSSSSS
# B9: il10ra_site1_sap_22_mot_8756ee2cf497b5429c717dfc0c0bcfd6_0001_000000186_0001_1_13_H_._HHH_b2_02097_0001_0000100003_0000002_0_0001_af2pred_0001 (protein)
# chain: SSSSSVEHALKALKELAEKNNDEELKELIEEIEEYLEEHKDPHEAAELLIRIAVEAHRRRGSSSS
# B10: il10ra_site1_normal_mot_2c1a291787c6f40772924d4e9068d803_0001_af2_000000222_0001_34_48_H_._9b26dc113238adff5f86db8059051cee_0001_0001_0000200002_0000002_0_af2pr … (protein)
# chain: SPALEEVIALARAGELLEAAHLLARLLREAQAAKDAERQRALFEILVLLHRGELEKAEELARKLS
# B11: il10ra_site1_sap_20_mot_b26a303360aa2756ef5b79665ce52f45_0001_000000179_0001_1_11_H_._HHH_b2_00074_0001_0000400020_0000002_0_0001_af2pred_dldesign_0_af2pred (protein)
# chain: DEREALLRRIGTARRAALAAGDLEAAEALYNLAVELLRNPDPNDAAALAEAAARTDALAAAAAAS
# B12: il10ra_site1_normal_mot_HHH_b2_06857_af2_000000179_0001_42_54_H_._HHH_b2_00081_af2_0001_0000100003_0000001_0 (protein)
# chain: SSSSDEAVQEVYRLIREAAEALQSGNPEEAEEILEEARRLAEEANNELLRIQVEFLLRLIDSSSS
# B13: il10ra_site1_normal_mot_HHH_b1_02997_000000220_0001_39_52_H_._HHH_b1_04704_0001_0000100005_0000003_0_af2pred_0001 (protein)
# chain: SSSSSKEAERAQKLAREAIEARQHGDEELVEELLEEALRLAEEGNNELLQLIIKFILEDLNSSSS
# B14: il10ra_site1_normal_mot_HHH_b1_07641_af2_000000285_0001_1_21_H_._HHH_b1_07021_af2_0001_0000200011_0000001_0_af2pred_0001 (protein)
# chain: SSSSTEELREVIKLLREVAQLLEEGNPEEARKVLEEAKELAEEIGNETLRFIIEFLERLLSSSSS
# B15: il10ra_site1_normal_mot_HHH_b2_04251_af2_000000037_0001_42_56_H_._HHH_b1_07770_0001_0000400020_0000001_0 (protein)
# chain: SSSSSDEEVRELIEEAKELLERGDPEEALKVLQEASRFAIELNDPELTRLVIEVARLLDSSSSSS
# B16: il10ra_site1_normal_mot_HHH_b2_03495_af2_000000088_0001_20_36_H_._HHH_b2_06881_af2_0001_0000100005_0000001_0 (protein)
# chain: SSSSSEEEEEVRELLEEAKHIDDPREAAQVLLEATHLAWELGDEELLQLVHEVAEEVRKRASSSS
# B17: il10ra_site1_normal_mot_HHH_b1_00999_000000080_0001_41_55_H_._HHH_b2_00276_0001_0000200011_0000001_0 (protein)
# chain: SSSSSEEFEERIRELLEEAEQTEDPEERIRLILEALRLAYEVNNPELLQEVWEVAKRLGEGSSSS
# B18: il10ra_site1_normal_mot_8756ee2cf497b5429c717dfc0c0bcfd6_0001_000000186_0001_1_13_H_._HHH_b2_00783_af2_0001_0000500025_0000001_0_af2pred_0001 (protein)
# chain: SSSSTEEIRELLKLLREAAELLSDGNPEEAEEVLKEAEELAKELGDETVKVIIEFLKEQVRSSSS
# B19: il10ra_site1_normal_mot_HHH_b1_00783_000000006_0001_19_35_H_._HHH_b2_01165_0001_0000200024_0000002_0 (protein)
# chain: SSSSDEEEAREVLEHYEELLEEVAKKDAQKAFEALEEAIRLLLRLGDDEAAREISRFFVRLSSSS
# B20: il10ra_site1_sap_15_mot_HHH_b2_05532_000000217_0001_1_18_H_._HHH_b2_05602_0001_0000100004_0000002_0_0001_af2pred_0001 (protein)
# chain: SSSSDVEELLEEAEELAREGNPEEALEVLIEAFSEAWHLNDPELREEVAKLIREVARALRSSSSS
# B21: il10ra_site1_sap_27_mot_HHH_b1_03613_af2_000000245_0001_1_20_H_._HHH_b1_04433_af2_0001_0000200022_0000001_0_0001_af2pred_0001 (protein)
# chain: SSSSDEERIKLAIRFAKFLEEEGDPEAAKFILRAAIQIARKLGNEELVEELERLLKELEENSSSS
# B22: il10ra_site1_normal_mot_HHH_b2_02354_af2_000000157_0001_40_56_H_._HHH_b1_07268_0001_0000100002_0000001_0 (protein)
# chain: SSSSDEHEAARLIEEIMRLIKEGDHEEAKELIEELEELAKRLNDPNLEWIVKSLKLAIEQVSSSS
# B23: il10ra_site1_normal_mot_HHH_b2_02337_000000026_0001_38_52_H_._HHH_b1_02815_0001_0000600033_0000001_0 (protein)
# chain: SSSSDEEEEESEELERELEELLRRGDQERFNRLAQEISQFAFEVNDEELLRRVWELVRKFASSSS
# B24: il10ra_site1_normal_mot_7d538683ae38ff56261eb02f12605454_0001_af2_000000062_0001_54_65_H_._HHH_b1_03098_0001_0000400031_0000002_0 (protein)
# chain: SSSSSHAEAIVRIYREAVEFLYESGNPERAEHSARAALRALELLGNPELVEELERWLQELLSSSS
# Biological target: il10ra, Q13651
# Assay: yeast display titration
row,Binder,apparent Kd
1,B1,inactive: no binding seen
2,B2,inactive: no binding seen
3,B3,inactive: no binding seen
4,B4,inactive: > 315 nM
5,B5,inactive: no binding seen
6,B6,inactive: no binding seen
7,B7,inactive: no binding seen
8,B8,inactive: no binding seen
9,B9,inactive: no binding seen
10,B10,inactive: > 3860 nM
11,B11,inactive: no binding seen
12,B12,inactive: no binding seen
13,B13,inactive: no binding seen
14,B14,inactive: no binding seen
15,B15,inactive: no binding seen
16,B16,inactive: no binding seen
17,B17,inactive: no binding seen
18,B18,inactive: no binding seen
19,B19,inactive: no binding seen
20,B20,inactive: no binding seen
21,B21,inactive: no binding seen
22,B22,inactive: no binding seen
23,B23,inactive: no binding seen
24,B24,inactive: no binding seen

# Part of the list above, as tab-separated lines.
row	Binder	apparent Kd
22	B22	inactive: no binding seen
23	B23	inactive: no binding seen

# From publication PMC10163288
